Experiment [1] addresses recombinant mouse VEGF165 (mouse) (UniProt Q00731). In words: SPR (Biacore 2000). In general terms: Surface plasmon resonance follows binding to a sensor surface in real time, without labels.
Experiment [2] shares this target. In words: SPR (Biacore 2000), summary of Example 1.

By UniProt entry, the sequences of proteins in these tests, tags left out. Where a name states a change or a piece, a line headed by the entry shows the natural chain unless it says otherwise.
UniProt Q00731: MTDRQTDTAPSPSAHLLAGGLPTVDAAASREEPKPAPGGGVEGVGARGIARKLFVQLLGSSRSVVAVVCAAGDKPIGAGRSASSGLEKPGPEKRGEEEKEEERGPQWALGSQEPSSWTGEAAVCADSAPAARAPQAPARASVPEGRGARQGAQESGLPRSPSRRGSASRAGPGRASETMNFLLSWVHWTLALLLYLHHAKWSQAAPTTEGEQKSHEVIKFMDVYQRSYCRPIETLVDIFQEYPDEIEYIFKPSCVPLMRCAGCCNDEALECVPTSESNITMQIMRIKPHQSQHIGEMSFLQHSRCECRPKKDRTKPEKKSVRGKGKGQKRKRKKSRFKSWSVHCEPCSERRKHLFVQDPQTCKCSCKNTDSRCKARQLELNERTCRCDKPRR

These are yes or no findings as the source states them, for the method shown. Binding calls can cover weak binding; strength is not graded here.

B1: anti-VEGF/anti-DLL4 bispecific antibody 219R45-MB-21M18 (bispecific antibody, human IgG2)
heavy 1: QVQLVQSGAEVKKPGASVKVSCKASGYTFTNYWMHWVRQAPGQGLEWMGDINPSNGRTSYKEKFKRRVTLSVDKSSSTAYMELSSLRSEDTAVYFCTIHYDDKYYPLMDYWGQGTLVTVSSASTKGPSVFPLAPCSRSTSESTAALGCLVKDYFPEPVTVSWNSGALTSGVHTFPAVLQSSGLYSLSSVVTVPSSNFGTQTYTCNVDHKPSNTKVDKTVERKCCVECPPCPAPPVAGPSVFLFPPKPKDTLMISRTPEVTCVVVDVSHEDPEVQFNWYVDGVEVHNAKTKPREEQFNSTFRVVSVLTVVHQDWLNGKEYKCKVSNKGLPAPIEKTISKTKGQPREPQVYTLPPSREKMTKNQVSLTCLVKGFYPSDIAVEWESNGQPENNYKTTPPMLKSDGSFFLYSKLTVDKSRWQQGNVFSCSVMHEALHNHYTQKSLSLSPGK
heavy 2: QVQLVQSGAEVKKPGASVKISCKASGYSFTAYYIHWVKQAPGQGLEWIGYISSYNGATNYNQKFKGRVTFTTDTSTSTAYMELRSLRSDDTAVYYCARDYDYDVGMDYWGQGTLVTVSSASTKGPSVFPLAPCSRSTSESTAALGCLVKDYFPEPVTVSWNSGALTSGVHTFPAVLQSSGLYSLSSVVTVPSSNFGTQTYTCNVDHKPSNTKVDKTVERKCCVECPPCPAPPVAGPSVFLFPPKPKDTLMISRTPEVTCVVVDVSHEDPEVQFNWYVDGVEVHNAKTKPREEQFNSTFRVVSVLTVVHQDWLNGKEYKCKVSNKGLPAPIEKTISKTKGQPREPQVYTLPPSREEMTKNQVSLTCLVEGFYPSDIAVEWESNGQPENNYKTTPPMLDSDGSFFLYSELTVDKSRWQQGNVFSCSVMHEALHNHYTQKSLSLSPGK
light: DIVMTQSPDSLAVSLGERATISCRASESVDNYGISFMKWFQQKPGQPPKLLIYAASNQGSGVPDRFSGSGSGTDFTLTISSLQAEDVAVYYCQQSKEVPWTFGGGTKVEIKRTVAAPSVIFPPSDEQLKSGTASVVCLLNNFYPREAKVQWKVDNALQSGNSQESVTEQDSKDSTYSLSSTLTLSKADYEKHKVYACEVTHQGLSSPVTKSFNRGEC
Turning to B1, the binding entry in experiment [1] and in experiment [2] was “binds” in each case.

B2: anti-VEGF/anti-DLL4 bispecific antibody 219R45-MB-21R79 (bispecific antibody, human IgG2)
heavy 1: QVQLVQSGAEVKKPGASVKVSCKASGYTFTNYWMHWVRQAPGQGLEWMGDINPSNGRTSYKEKFKRRVTLSVDKSSSTAYMELSSLRSEDTAVYFCTIHYDDKYYPLMDYWGQGTLVTVSSASTKGPSVFPLAPCSRSTSESTAALGCLVKDYFPEPVTVSWNSGALTSGVHTFPAVLQSSGLYSLSSVVTVPSSNFGTQTYTCNVDHKPSNTKVDKTVERKCCVECPPCPAPPVAGPSVFLFPPKPKDTLMISRTPEVTCVVVDVSHEDPEVQFNWYVDGVEVHNAKTKPREEQFNSTFRVVSVLTVVHQDWLNGKEYKCKVSNKGLPAPIEKTISKTKGQPREPQVYTLPPSREKMTKNQVSLTCLVKGFYPSDIAVEWESNGQPENNYKTTPPMLKSDGSFFLYSKLTVDKSRWQQGNVFSCSVMHEALHNHYTQKSLSLSPGK
heavy 2: QVQLVQSGAEVKKPGASVKISCKASGYSFTAYYIHWVKQAPGQGLEWIGYIANYNRATNYNQKFKGRVTFTTDTSTSTAYMELRSLRSDDTAVYYCARDYDYDVGMDYWGQGTLVTVSSASTKGPSVFPLAPCSRSTSESTAALGCLVKDYFPEPVTVSWNSGALTSGVHTFPAVLQSSGLYSLSSVVTVPSSNFGTQTYTCNVDHKPSNTKVDKTVERKCCVECPPCPAPPVAGPSVFLFPPKPKDTLMISRTPEVTCVVVDVSHEDPEVQFNWYVDGVEVHNAKTKPREEQFNSTFRVVSVLTVVHQDWLNGKEYKCKVSNKGLPAPIEKTISKTKGQPREPQVYTLPPSREEMTKNQVSLTCLVEGFYPSDIAVEWESNGQPENNYKTTPPMLDSDGSFFLYSELTVDKSRWQQGNVFSCSVMHEALHNHYTQKSLSLSPGK
light: DIVMTQSPDSLAVSLGERATISCRASESVDNYGISFMKWFQQKPGQPPKLLIYAASNQGSGVPDRFSGSGSGTDFTLTISSLQAEDVAVYYCQQSKEVPWTFGGGTKVEIKRTVAAPSVIFPPSDEQLKSGTASVVCLLNNFYPREAKVQWKVDNALQSGNSQESVTEQDSKDSTYSLSSTLTLSKADYEKHKVYACEVTHQGLSSPVTKSFNRGEC
Regarding B2, the binding result in experiment [1] and in experiment [2] was “binds” in each case.

(Values after patent US20150368329A1 (ONCOMED PHARMACEUTICALS, published 2015).)
